This passage reports cell number change and AC50 results from PubChem BioAssay AID2685 (National Center for Advancing Translational Sciences (NCATS), 2010).

The other results are listed elsewhere or left out. The main result of the screen is listed elsewhere. These columns were measured beside it and carry no call. Most of these compounds were active or inconclusive in the main read-out, so they are no random draw. Potencies come from curve fits of mixed quality, noted in brackets.

A short description of this test: qHTS Assay for Lipid Storage Modulators in Drosophila S3 Cells.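 For cell number change: cells counted by Cell Tracker Red CMTPX staining in the red channel.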 To be noted: BODIPY lipid droplet fluorescence, 18-24 h; for cell number change: measured here: cell count max response, cells fed with added oleic acid. The method, boiled down: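 Drosophila S3 cells loaded with oleic acid (400 uM, as added) and compounds at several concentrations; lipid droplets imaged by 488-nm laser-scanning cytometry, 500–530 nm intensity and object ratio to cell channel. Percent activity normalized to 20 uM Triacsin C.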
(qHTS replaces the single test concentration by a dilution series.)

[1] abbreviates: measured here: cell number channel AC50, cells fed with added oleic acid.
[2] abbreviates: measured here: lipid fluorescence (Fed channel) AC50, cells fed with added oleic acid.

As for `COc1cccc(NC(=O)c2cc3cccc(OC)c3o/c2=N\O)c1`, the cell number change was -60%. Further, the AC50 (as a rule, the midpoint of the concentration-response curve, whichever way the signal moves) under setting [1] is 20.6 µM [falling, single point]. Under setting [2], the AC50 was 29.1 µM [falling, single point].

As to `Cc1nn(Cc2ccccc2)c(=O)n1N(C)c1ncc(C(F)(F)F)cc1Cl`, the cell number change worked out at 20.1%. For the same compound, under setting [2], the half-maximal activity concentration (AC50) is 29.1 µM [rising, single point].

For the compound `Cc1cc(C)nc(N/N=C/c2ccc(N3CCOCC3)cc2)n1`, the cell number change was 42%. Moreover, under setting [1], the half-maximal activity concentration (AC50) is 29.1 µM [rising, partial curve, poor fit]. For the same compound, under setting [2], the AC50 was 29.1 µM [rising, partial curve, poor fit].

Consider `CCOc1ncccc1C(=O)Nc1cc(S(=O)(=O)N2CCCCCC2)ccc1OC`, for which the cell number change is 16.6%.

Take `CN1C=CC=C/C1=C1\SC(=S)N(N)C1=O`: the cell number change is 14.8%.

As for `CN(CCOc1ccccc1)c1ccc(S(=O)(=O)N2CCCCC2)cn1`, the cell number change was 16.3%. The AC50 under setting [2] was 5.8 µM [rising, partial curve].

For `COCc1c(C(=O)N2CCN(CCOc3ccccc3)CC2)oc2ccccc12`, the cell number change was -17.2%. Besides, under setting [2], the AC50 was 3.26 µM [rising, full curve, poor fit].

With `CCOC(=O)C1=C(CC)Nc2ccccc2N=C1NC(=O)c1cccc(S(=O)(=O)N2CCOCC2)c1`, the cell number change is 5.57%. Besides, the AC50 under setting [2] is 0.184 µM [rising, full curve, poor fit].

For the compound `COc1ccc(CC(=O)Nc2ccc(S(=O)(=O)N(C)C3CCN(C)CC3)cc2)cc1`, the cell number change was -6.35%. Also, the AC50 under setting [2] is 29.1 µM [rising, partial curve, poor fit].

For `O=C(CCl)N1CCN(S(=O)(=O)c2ccc3c(c2)CCC3)CC1`, the cell number change is 13.3%. Moreover, under setting [2], the AC50 is 29.1 µM [falling, partial curve, poor fit].

For the compound `CC(NC(=O)COC(=O)c1cc2ccccc2cc1O)c1ccccc1` (stereo not given), the cell number change was -34.8%. Besides, the concentration at half-maximal activity (AC50) under setting [1] is 13 µM [falling, partial curve, poor fit].

On to `CC(C)(C)c1ccc(C(=O)Nc2cccc3c(=O)[nH][nH]c(=O)c23)cc1`, for which the AC50 under setting [2] is 29.1 µM [rising, single point].

Take `CN(CC(=O)Nc1ccc(Cl)c(Cl)c1)C1CCCCC1`: the cell number change was -16.8%. Besides, the AC50 under setting [2] was 29.1 µM [falling, single point].

For `COC(=O)c1ccc(N2CCCCC2)c(NC(=O)c2ccco2)c1`, the cell number change worked out at 11.1%. Under setting [1], the AC50 is 0.164 µM [rising, full curve, poor fit]. Moreover, the AC50 under setting [2] was 2.06 µM [rising, partial curve, poor fit].

For `CC(=O)c1ccc(N(C(=O)CNC(=O)c2ccco2)C(C(=O)NC2CCCC2)c2ccco2)cc1` (stereo not given), the cell number change was 7.08%.

Regarding `CCCN1CCc2c(sc3nc(SC)n(-c4ccccc4)c(=O)c23)C1`, the cell number change stood at 53.9%. In addition, the half-maximal activity concentration (AC50) under setting [1] was 13 µM [rising, partial curve]. The AC50 under setting [2] is 29.1 µM [rising, single point].

For `O=C(O)c1ccc(-n2cccc2/C=C2/SC(=O)N(CC(=O)N3CCCC3)C2=O)cc1`, the cell number change is 13.5%.

Consider `CN1c2ccccc2C(=O)/C(=C\Nc2ccc(F)cc2)S1(=O)=O`, for which the cell number change was -6.98%. Besides, the AC50 under setting [2] is 0.651 µM [falling, full curve, poor fit].

For the compound `CCCCN(CC)CCNC(=O)c1cc2c(=O)[nH]c3ccccc3c2s1`, the cell number change was determined as 35.5%. Under setting [1], the AC50 was 2.06 µM [rising, full curve]. Moreover, the AC50 under setting [2] is 16.4 µM [rising, partial curve].

Take `CC(O)CNCCNCc1cccs1` (stereo not given): the cell number change was -5.54%. For the same compound, under setting [1], the concentration at half-maximal activity (AC50) was 0.731 µM [rising, single point].

As for `CN1CCN(c2ccc(CNS(=O)(=O)Cc3cccc(C(F)(F)F)c3)cc2)CC1`, the cell number change was -25.5%. For the same compound, the AC50 under setting [2] is 23.1 µM [falling, single point].

For the compound `COc1cc(CN2CCNC(=O)C2CC(=O)N(Cc2nccn2C)C(C)C)cc(OC)c1` (stereo not given), the cell number change was -15.3%. Besides, the AC50 under setting [1] was 0.82 µM [falling, full curve, poor fit]. The AC50 under setting [2] was 0.731 µM [falling, full curve].

For the compound `Cc1nc(SCC(=O)NCCc2ccc(Cl)cc2)nc(C)c1C`, the cell number change was -15.5%. Under setting [2], the AC50 is 0.231 µM [rising, single point].

For `CC(C)OC(=O)CC(=O)CSc1nc(-c2ccc(F)cc2)cc(-c2ccccc2)c1C#N`, the cell number change amounted to 12.3%.

For the compound `Cc1cc(NC(=O)c2cc3n(n2)C(C(F)(F)F)CC(c2ccco2)N3)n(-c2ccccc2)n1` (stereo not given), the AC50 is, setting by setting: under setting [1], 0.411 µM [rising, full curve]; under setting [2], 0.731 µM [rising, partial curve].

Turning to `O=C(c1cc2c(s1)CCCCC2)N1CCN(c2ncccn2)CC1`, the cell number change is 7.74%. Further, the AC50 under setting [2] was 6.51 µM [rising, single point].

Take `COc1ccc(-c2nn(-c3ccccc3)cc2C(=O)NC(=S)N2CCOCC2)cc1OC`: the cell number change is -23.1%. The AC50 under setting [1] was 0.0116 µM [falling, full curve, poor fit]. Under setting [2], the AC50 was 0.0206 µM [falling, full curve, poor fit].

Regarding `CCOC(=O)c1ccc(NC(=O)Nc2ccc(OC)c(OC)c2)cc1`, the AC50 under setting [2] was 3.26 µM [rising, partial curve].

Regarding `COc1ccc(C(=O)/C=C/C(=O)N(Cc2ccccc2)C(C(=O)NC2CCCCC2)c2ccncc2)c(O)c1` (stereo not given), the cell number change was -40.6%. Also, under setting [1], the AC50 was 0.366 µM [falling, full curve]. For the same compound, under setting [2], the AC50 was 0.58 µM [rising, full curve, poor fit].

On to `O=C(Nc1cccc(Oc2ccc3c(c2)C(=O)NC3=O)c1)c1cccs1`, for which the cell number change was -25.1%. Further, the AC50 under setting [2] was 11.6 µM [falling, partial curve].

Consider `CCOC(=O)c1ccc(NCc2ccc3c(c2)OCO3)cc1`, for which the cell number change was -26.3%. The concentration at half-maximal activity (AC50) under setting [2] was 20.6 µM [falling, partial curve, poor fit].

As for `O=S(=O)(c1cc(Cl)ccc1Cl)N1CCN(c2ccccn2)CC1`, the cell number change was 8.97%.

Take `O=[N+]([O-])c1cc(S(=O)(=O)c2ccc(N3CCCCC3)c([N+](=O)[O-])c2)ccc1N1CCCCC1`: the AC50 under setting [2] is 6.51 µM [falling, partial curve].

In the case of `O=C(CCn1c(=S)[nH]c2cc3c(cc2c1=O)OCO3)NCc1ccc(Cl)cc1`, the cell number change turned out to be 17.3%. The half-maximal activity concentration (AC50) under setting [1] is 0.0058 µM [rising, full curve, poor fit].

In the case of `COc1ccc(N2C(=O)C(CN3CCN(C)CC3)C2c2ccccc2)cc1` (stereo not given), the cell number change came out at 21.3%. Also, the AC50 under setting [2] is 20.6 µM [rising, single point].

As to `CC(C)Oc1ccc(/C=N/NC(=O)C2CCCN2S(=O)(=O)c2ccc(Cl)cc2)cc1` (stereo not given), the cell number change is -23.9%. The AC50 under setting [2] was 0.146 µM [rising, full curve, poor fit].

For `Cc1n[nH]c(C)c1N=Nc1ccc(Br)cc1`, the cell number change worked out at 54.4%. Besides, the AC50 under setting [1] is 0.92 µM [rising, full curve].

In the case of `Cc1csc(N(C(=O)c2cccc(S(=O)(=O)N(C)C)c2)c2ccccc2)n1`, the cell number change was -30.7%. Further, under setting [1], the AC50 is 29.1 µM [falling, single point].

Turning to `CC(=O)c1cccc(NS(=O)(=O)c2ccc(-c3cnc(C4CC4)o3)cc2)c1`, the cell number change is -4.72%. Moreover, under setting [2], the AC50 was 29.1 µM [falling, single point].

For the compound `O=C(Nc1ccc(F)cc1)c1cnc(-c2ccccc2)nc1-c1ccccc1`, the cell number change was -104%. Under setting [1], the AC50 was 29.1 µM [falling, single point].

As to `Fc1ccc(NCc2cccnc2)cc1`, the cell number change turned out to be 51.2%. Besides, the AC50 under setting [1] was 6.51 µM [rising, partial curve].

`C=CCNc1oc(-c2ccc(OCC)cc2)nc1C#N`: the AC50 under setting [1] is 1.16 µM [rising, partial curve].

In the case of `Cc1cc2c(cc1S(=O)(=O)N1CC(C)CC(C)C1)OCC(=O)N2` (stereo not given), the cell number change was -11.5%.

On to `COCCn1c(SCC(=O)Nc2cccc(S(N)(=O)=O)c2)nc2ccccc21`, for which the cell number change was -8.33%. The AC50 under setting [2] is 4.61 µM [rising, partial curve, poor fit].

For the compound `Brc1cccc(CNCc2ccncc2)c1`, the cell number change is 4.67%.

With `Cc1cccc(S(=O)(=O)N(CC(=O)Nc2ccccc2C)Cc2ccco2)c1`, the cell number change is 18.6%. Besides, the AC50 under setting [1] is 0.0517 µM [rising, full curve, poor fit].

In the case of `CC1=C(c2ccc(C)cc2)S(=O)(=O)N(CC(=O)O)C1=O`, the cell number change is -30.6%. Under setting [1], the concentration at half-maximal activity (AC50) is 0.00517 µM [falling, full curve, poor fit]. For the same compound, the AC50 under setting [2] was 10.3 µM [falling, partial curve].

In the case of `O=C(CNC(=O)c1ccccc1F)NCCOc1ccccc1Cl`, the cell number change amounted to 23.6%. In addition, the AC50 under setting [1] was 0.461 µM [falling, full curve]. Also, the AC50 under setting [2] is 29.1 µM [rising, single point].

In the case of `Cn1ccnc1CC(O)(c1ccccc1)c1ccccc1`, the cell number change came out at 32.1%. Further, the half-maximal activity concentration (AC50) under setting [2] was 0.82 µM [falling, single point].

Consider `Cc1cc(Cn2nnc(-c3ccc(Br)cc3)n2)cc(C)c1O`, for which the cell number change was -79.7%. In addition, the AC50 under setting [1] is 18.4 µM [falling, partial curve]. In addition, the AC50 under setting [2] was 2.06 µM [rising, partial curve].

Take `COc1ccc(C(=O)c2ccccc2)c(OCC(=O)N(C)C)c1`: the cell number change came to 18.3%. Besides, the half-maximal activity concentration (AC50) under setting [2] was 4.11 µM [rising, full curve, poor fit].

For the compound `COc1cccc(/C=N/NC(=O)c2ccc(-c3ccccc3)cc2)c1O`, the cell number change is -34.4%. Further, the AC50 under setting [1] was 5.8 µM [falling, full curve, poor fit]. Under setting [2], the concentration at half-maximal activity (AC50) is 0.731 µM [rising, full curve, poor fit].

As to `C/C(=N\NC(=O)C(N)=O)c1ccc(O)cc1O`, the AC50 is 0.00461 µM [falling, full curve, poor fit] under setting [1] and 0.00517 µM [falling, full curve, poor fit] under setting [2].

On to `C[C@H](NC(=O)c1nc[nH]c1C(=O)N1CCN(c2ccccc2)CC1)C(=O)OCc1ccccc1`, for which the cell number change was -6.59%.

Regarding `CSc1oc(-c2ccccc2)nc1S(=O)(=O)c1ccc(C)cc1`, the concentration at half-maximal activity (AC50) by setting is: under setting [1], 4.61 µM [rising, single point]; under setting [2], 3.66 µM [rising, single point].

For `Cc1cccc(N2CCN(C(=O)CNC(=O)c3ccccc3)CC2)c1C`, the cell number change was 17.9%.

For the compound `O=S(=O)(Nc1ccc2c(c1)OCO2)c1ccc(Br)s1`, the cell number change is -19.1%. In addition, the AC50 under setting [2] was 14.6 µM [falling, single point].

As to `CCNC(=O)N1CCCC(C(=O)c2ccc3cc(OC)ccc3c2)C1` (stereo not given), the cell number change was -33.9%. Further, under setting [1], the AC50 is 16.4 µM [falling, partial curve]. In addition, under setting [2], the AC50 is 8.2 µM [falling, partial curve, poor fit].
